Assay results as given in paper PMC5485742.

Molecular target: CHIQ1-GFP (CHIQUITA 1 fused to GFP), overexpressed in Arabidopsis seedlings (Arabidopsis thaliana) (UniProt O22146)
Experiment: affinity purification with mass spectrometry; anti-GFP antibody on protein A/G magnetic beads; total protein of 2-day-old Arabidopsis seedlings overexpressing CHIQ1-GFP, GFP-overexpressing seedlings as control; native buffer (100 mM sodium phosphate pH 8.0, 150 mM NaCl, 5 mM EDTA, 5 mM EGTA, 0.05% Triton X-100), 1.5 h at 4 °C; LC/MS-MS, at least three peptides, only proteins absent from the GFP control

B1: PICKLE-RELATED2 (PKR2), endogenous (protein, UniProt F4JTF6 1-1202)
chain: MANLLQRLRRRTGPKPDYIEDKLDEYIREEQVEETGGSNQDCPLGEIEKILDREWRPTASNNPNSSDNGTPTLVVVKQYLVKWKGLSYLHCSWVPEQEFEKAYKSHPHLKLKLRVTRFNAAMDVFIAENGAHEFIAIRPEWKTVDRIIACREGDDGEEYLVKYKELSYRNSYWESESDISDFQNEIQRFKDINSSSRRDKYVENERNREEFKQFDLTPEFLTGTLHTYQLEGLNFLRYSWSKKTNVILADEMGLGKTIQSIAFLASLFEENLSPHLVVAPLSTIRNWEREFATWAPHMNVVMYTGDSEARDVIWEHEFYFSEGRKSKFDVLLTTYEMVHPGISVLSPIKWTCMIIDEGHRLKNQKSKLYSSLSQFTSKHIVLLTGTPLQNNLNELFALMHFLDADKFGSLEKFQDINKEEQISRLHQMLAPHLLRRLKKDVLKDKVPPKKELILRVDMSSQQKEVYKAVITNNYQVLTKKRDAKISNVLMKLRQVCSHPYLLPDFEPRFEDANEAFTKLLEASGKLQLLDKMMVKLKEQGHRVLIYTQFQHTLYLLEDYFTFKNWNYERIDGKISGPERQVRIDRFNAENSNRFCFLLSTRAGGIGINLATADTVIIYDSDWNPHADLQAMARVHRLGQTNKVMIYRLIHKGTVEERMMEITKNKMLLEHLVVGKQHLCQDELDDIIKYGSKELFSEENDEAGRSGKIHYDDAAIEQLLDRNHVDAVEVSLDDEEETDFLKNFKVASFEYVDDENEAAALEEAQAIENNSSVRNADRTSHWKDLLKDKYEVQQAEELSALGKRKRNGKQVMYAEDDLDGLEEISDEEDEYCLDDLKVTSDEEEEADEPEAARQRKPRTVTRPYRKRARDNSEEIPLMEGEGRYLMVLGFNETERDIFLRTFKRYGAGNFDWKEFVNPLYMKTYDEINKYGILFLKHIAENPTDNSTNFKVITAMVYADGVPKEGISSDELLVSMTFMMLVKEKCQFLDNHPTAPVFSNYVISKYNLRNGAFSKEEHDRILIPAVSKHGYGRWVAIVEDEEIGFQEVACKDLNIPFPPDTKSARKRICDHVGKRVKKMEDAIKYEYAEKILAEQAKAETKGTSFVDAEKEMLKNDPITSKKNSATAVDNKQGRVEMAQSYDQSVNEKSGESFQTYLDIQPLNRMPRESFKPLEPINEEISTRLSVGTDHDVEMDAADNIIVLD
Q: Which binding does the source give for B1 here?
A: binds

No constants are given. Whether binding was seen depends on the method and setting. Binding seen in cells or lysates may run through a third protein. A yes stands for co-enrichment or nearness to the bait. Other partners may have been found.
